Data: patent US5041436A, “1-arylsulphonyl-2-piperidinone derivatives, process and intermediates for the preparation thereof, their application as antispasmodics and compositions containing them” (Roussel Uclaf, priority 1989, dated 1991)

Tested on: isolated guinea pig ileum, contractions induced by histamine
Test: Antagonist action on contractions induced by histamine, isolated guinea pig ileum
Details: histamine 1×10^-5 M; contact time one minute; 37° C.; read-out: Antagonist to different agents (IC50), Histam.
Method: The interaction of the compounds with different receptors was assessed on isolated guinea pig ileum according to the following method.
Guinea pig ileum segments measuring 2.5-3 cm were washed and immediately suspended in a bath containing 10 ml of Tyrode's solution at 37° C. aerated with a mixture of oxygen (95%) and carbon dioxide (5%). After a stabilization period of at least 30 minutes, the contractions were recorded, maintaining the preparation under constant tension of 1 g using a gauge connected to a polygraph. The agonist action was assessed by leaving the compound in contact with the isolated tissue for a period necessary for expressing the maximal contraction; the preparation was then washed with Tyrode's solution. The next dose was added to the bath only after the preparation had returned to its base line. As a reference product, arecoline was employed. The antagonist action was assessed on contractions induced by acetyl choline (1×10^-6 M), histamine (1×10^-5 M) and barium chloride (2×10^-4 M). Atropine, diphenhydramine and papaverine were emplohyed as reference products. The contact time before adding the agonist was one minute.
For each compound, the dose-response curves are obtained with 4 to 6 different concentrations and 3 to 5 independent tests. The agonist activity is expressed by pD2 (negative logarithm of the dose which produces 50% of maximum effect). […]

SMILES: CN(C)CCOC(c1ccccc1)c1ccccc1 [Diphenydramine, diphenhydramine, reference compound]
- IC50: 0.83 µM
